The target in this test is mouse TRAIL expressed on transiently transfected 293T cells (mouse) (UniProt P50592). As to the kind of experiment: flow cytometry on 293T cells transfected with mouse TRAIL.

Sequences of proteins named here, by UniProt entry; tags and fusion partners are left off. Residues count along the entry.
UniProt P50592: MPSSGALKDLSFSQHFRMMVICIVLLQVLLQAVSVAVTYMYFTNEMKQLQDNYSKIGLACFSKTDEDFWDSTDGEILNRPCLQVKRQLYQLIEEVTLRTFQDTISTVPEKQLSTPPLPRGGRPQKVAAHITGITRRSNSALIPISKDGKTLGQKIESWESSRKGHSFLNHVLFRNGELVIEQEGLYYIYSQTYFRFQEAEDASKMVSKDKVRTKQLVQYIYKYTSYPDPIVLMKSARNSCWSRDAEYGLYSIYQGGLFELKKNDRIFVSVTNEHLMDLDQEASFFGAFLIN
UniProt O14763, residues 56-210: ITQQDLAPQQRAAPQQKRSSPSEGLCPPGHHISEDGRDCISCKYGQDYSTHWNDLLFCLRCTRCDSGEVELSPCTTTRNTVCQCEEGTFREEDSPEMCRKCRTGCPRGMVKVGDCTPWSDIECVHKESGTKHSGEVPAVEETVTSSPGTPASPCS

These are yes or no findings as the source states them, for the method shown. Some binding calls cover weakened binding; strength is not graded here.

Take “human TRAIL-R2:Fc (extracellular domain of human TRAIL-R2 fused to human IgG constant domain), as used in FIG. 9 (from UniProt O14763 56-210) (Fc fusion)”: the binding entry was “binds”.

For the origin of these results see patent publication US20170088600A1.
